# PubChem BioAssay AID1053208, Peter MacCallum Cancer Centre – 2014
# Assay: 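Find knock-downs that sensitise mouse osteosarcoma cells to doxorubicin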 (primary screen)
# Cells: mouse osteosarcoma cells, early-passage culture from an engineered mouse model of fibroblastic bone tumour
# Reagents: siRNA pool against mouse genes, 40 nM
# Duration: about 120 h (48 h before drug, then 72 h with drug)
# Conditions: doxorubicin 100 nM for 72 h, roughly 30-40% inhibitory dose
# Detection: 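Viability read as ATP luminescence after 72 h of 100 nM doxorubicin or none, duplicate wells averaged, scaled to non-targeting siRNA, then expressed as robust z-scores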
# Direction: viability z-score with doxorubicin: higher = more viable cells under doxorubicin; viability z-score without drug: higher = more viable cells with knock-down alone
# Rule for the call: 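a pool counts as active when its viability z-score with doxorubicin is -2 or below and its z-score without drug lies between -2 and 2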
# In all, the deposit lists about 17,000 reagents; this is a part drawn at random. 788 of all reagents (4.7%) were called active. 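Calls rest on z-score classes alone; an extra cut-off of viability at most 70% of control was not applied to them.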 Not all columns of the deposit are shown.
Target gene,combined z-score class,viability z-score with doxorubicin,viability z-score without drug,outcome
Lrrc4,no change with or without drug,-0.45,-1.18,inactive
Gngt1,no change with or without drug,-0.45,-0.67,inactive
Adam1b,no change with or without drug,0.22,-0.51,inactive
Aire,no change with or without drug,-1.46,-0.51,inactive
Lypd8l,no change with or without drug,0.22,0.84,inactive
Nop14,no change with or without drug,-1.24,0.51,inactive
Dnajc5b,no change with or without drug,0.67,1.52,inactive
Gm38404,no change with or without drug,1.12,-0.17,inactive
Ncor2,no change with or without drug,1.24,-0.51,inactive
Dolpp1,no change with or without drug,0.11,1.01,inactive
Or2l13,no change with or without drug,-0.67,0,inactive
Zscan12,high cell count with and without drug,2.14,3.04,inactive
Adamtsl3,no change with or without drug,0,1.18,inactive
Vax1,no change with or without drug,-0.9,0,inactive
Nat10,low cell count without drug only,-1.46,-7.59,inactive
Klhdc1,no change with or without drug,-0.22,0.34,inactive

Part of the list above, reformatted.
Target gene	combined z-score class	viability z-score with doxorubicin	viability z-score without drug	outcome
Dolpp1	no change with or without drug	0.11	1.01	inactive
Or2l13	no change with or without drug	-0.67	0	inactive

More entries:
Target gene,combined z-score class,viability z-score with doxorubicin,viability z-score without drug,outcome
Tmem198,no change with or without drug,0.11,0,inactive
Sgsm3,no change with or without drug,0.45,-0.17,inactive
Oprl1,no change with or without drug,0.22,-0.17,inactive
Arid4a,no change with or without drug,-0.45,-0.51,inactive
Klra21,no change with or without drug,0,-0.51,inactive
Ppil2,no change with or without drug,0.45,0.51,inactive
Htr7,no change with or without drug,0.22,0.17,inactive
Zg16,high cell count without drug only,1.8,4.72,inactive
Usp18,no change with or without drug,0,0.84,inactive
Ssh3,no change with or without drug,0.67,-0.17,inactive
AI467606,no change with or without drug,0,0.17,inactive
Ceacam10,low cell count with doxorubicin only,-2.14,-0.51,active
Nsfl1c,low cell count with doxorubicin only,-3.15,-0.84,active
Mtch2,no change with or without drug,0.9,-0.17,inactive
Golga4,no change with or without drug,0.79,-1.18,inactive
Bmp3,low cell count without drug only,-1.57,-2.53,inactive
Slc68a1,high cell count without drug only,-0.45,2.02,inactive
Srrm3,no change with or without drug,0.67,0.84,inactive
